Record: PubChem BioAssay AID504784 (Drosophila RNAi Screening Center, 2011)
In all, the deposit lists about 17,000 reagents; below is an unselected part of those that have a named target and a result. 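Each column is one replicate's B-score; the combined score over replicates was not deposited, so single values may mislead.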 Names joined by + are all predicted targets of the reagent. Not all columns of the deposit are shown.

- Purpose: 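Fly genes whose silencing alters how much lipid cells keep in droplets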 (primary screen)
- Cells: Drosophila Kc167 embryonic cells
- Reagent: long dsRNA against Drosophila genes, about 250 ng dsRNA per well
- Duration: 4 days
- Conditions: cells fed 400 µM oleic acid bound to BSA
- Measured: 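Microscope images give a droplet-to-nucleus area ratio, taken as log and converted to a screen-wide B-score; higher values mean greater lipid storage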
- Direction: droplet/nuclear area B-score: higher = more stored lipid (overstorage)

| gene | amplicon | droplet/nuclear area B-score, replicate 1 | droplet/nuclear area B-score, replicate 2 |
| --- | --- | --- | --- |
| Prp4k | DRSC08144 | -0.0128 | 0.53 |
| CG9837 | DRSC16573 | 0.313 | -0.225 |
| beat-IIIc | DRSC02438 | -0.346 | 0.636 |
| beat-IIIc | DRSC02949 | -0.309 | 0.123 |
| Task7 | DRSC16477 | -1.73 | 0.302 |
| mud | DRSC19019 | 0.143 | -0.505 |
| CG13658 | DRSC14659 | 1 | 0.457 |
| CG12826 | DRSC06175 | -3.09 | 0.313 |
| Atxn7 | DRSC00726 | 0.522 | -1.49 |
| Atxn7 | DRSC23138 | -0.237 | 1.02 |
| Pitslre | DRSC11874 | -1.01 | -0.0245 |
| Pitslre | DRSC23346 | -1.47 | 0.954 |
| Obp51a | DRSC22412 | -0.0303 | -0.601 |
| CHKov2 | DRSC14262 | -0.501 | – |
| beta'COP | DRSC03492 | 5.4 | 4.82 |
| CG2712 | DRSC18589 | -1.31 | – |
| CG3793 | DRSC01982 | 0.227 | -0.304 |
| Cyp28c1 | DRSC20236 | 0.448 | 0.676 |
| Lamtor1 | DRSC10183 | -0.0347 | -0.576 |
| CG10041 | DRSC14179 | 1.56 | 0.161 |
| Mekk1 | DRSC16302 | -1.04 | 0.194 |
| Mekk1 | DRSC16303 | -0.88 | -0.874 |
| CG13786 | DRSC02289 | -2.43 | 0.393 |
| CG4661 | DRSC19910 | 0.763 | 0.884 |
| CSN1a | DRSC01951 | 1.36 | 0.355 |
| Dnaaf5 | DRSC13032 | -0.00944 | 1.95 |
| Gr28b | DRSC02291 | 0.69 | 0.427 |
| Gr28b | DRSC02292 | 0.508 | -0.0896 |
| CG31454 | DRSC14365 | -0.535 | -0.407 |
| CG31454 | DRSC22801 | 0.656 | 0.66 |
| Ctr1C | DRSC15089 | -1.27 | 0.38 |
| Dbp80 | DRSC22034 | -0.701 | -0.481 |
| CG34447 | DRSC00741 | -0.895 | -0.364 |
| eIF3m | DRSC07142 | 3.08 | 3.37 |
| CG7423 | DRSC20044 | 1.35 | -0.812 |
| CG4362 | DRSC15567 | -1.42 | 0.0292 |
| CG3739 | DRSC15510 | 0.109 | -0.453 |
| CG3906 | DRSC04431 | -0.167 | 0.00731 |
| CG7011 + Prp31 | DRSC10760 | 0.163 | -0.833 |
| MtnB | DRSC22744 | 0.985 | 0.568 |
| Max | DRSC11218 | -1.61 | -0.0653 |
| CG1504 | DRSC20513 | 1.18 | -0.424 |
| l(3)72Dp | DRSC10477 | 0.365 | -0.413 |
| MICAL-like | DRSC09829 | -0.0435 | 1.01 |
| CG14621 | DRSC20635 | -0.62 | -1.13 |
| CG7024 | DRSC18414 | -0.588 | 0.111 |
| RSG7 | DRSC20274 | 0.239 | 0.36 |
| RSG7 | DRSC22852 | -1.06 | -0.0146 |
| CG33771 | DRSC11718 | -0.699 | 0.145 |
| AANATL4 | DRSC06774 | 1.71 | -0.103 |
| Pez | DRSC03397 | -2.05 | -0.762 |
| al | DRSC00799 | -0.572 | -0.0534 |
| ea | DRSC16939 | -0.0533 | -0.532 |
| Sac1 | DRSC08622 | -0.985 | 0.1 |
| RhoGAP16F | DRSC20025 | -0.13 | -0.319 |
| CG14983 | DRSC08441 | -1.43 | -1.13 |
| twz | DRSC04069 | 0.601 | -0.613 |
| fl(2)d | DRSC07620 | 0.542 | 0.353 |
| Sirt6 | DRSC16010 | 0.357 | -0.195 |
| PIG-U | DRSC02193 | -1.83 | -1.24 |
| stmA | DRSC07593 | -1.07 | -0.019 |
| stmA | DRSC22179 | -0.409 | 0.543 |
| Best2 | DRSC09712 | -0.00748 | 0.132 |
| Bap111 | DRSC18419 | -3.89 | -1.94 |
| Acbp5 | DRSC10548 | 0.794 | 1.91 |
| Idgf2 | DRSC03350 | -0.412 | -1.4 |
| CG17187 | DRSC15181 | -0.176 | -0.953 |
| Pof | DRSC04405 | 0.0597 | -2.16 |
| scro | DRSC17102 | -0.702 | 1.07 |
| side-II | DRSC01913 | 0.898 | -0.582 |
| side-II | DRSC01932 | -0.657 | -0.161 |
| side-II | DRSC02480 | -1.23 | -0.444 |
| side-II | DRSC22508 | -2.5 | 2.04 |
| CG14185 | DRSC10184 | 0.644 | 0.11 |
| CG14464 | DRSC07760 | -0.742 | 0.45 |
| RpL8 | DRSC08532 | 1.33 | 1.95 |
| RpL8 | DRSC08695 | 2.34 | 2.02 |
| CG32246 | DRSC08115 | -0.135 | 0.00849 |
| CG15126 | DRSC06548 | -1.48 | 0.241 |
| CG15153 | DRSC02454 | 2.35 | 1.75 |
| CG31678 | DRSC02618 | -1.63 | -1.16 |
| CG31678 | DRSC02619 | 1.15 | -0.268 |
| Sap47 | DRSC16850 | 2.46 | -3.87 |

Laid out differently: 11 of the entries above.
Ctr1C [DRSC15089] | droplet/nuclear area B-score, replicate 1: -1.27; droplet/nuclear area B-score, replicate 2: 0.38
Dbp80 [DRSC22034] | droplet/nuclear area B-score, replicate 1: -0.701; droplet/nuclear area B-score, replicate 2: -0.481
CG34447 [DRSC00741] | droplet/nuclear area B-score, replicate 1: -0.895; droplet/nuclear area B-score, replicate 2: -0.364
eIF3m [DRSC07142] | droplet/nuclear area B-score, replicate 1: 3.08; droplet/nuclear area B-score, replicate 2: 3.37
CG7423 [DRSC20044] | droplet/nuclear area B-score, replicate 1: 1.35; droplet/nuclear area B-score, replicate 2: -0.812
CG4362 [DRSC15567] | droplet/nuclear area B-score, replicate 1: -1.42; droplet/nuclear area B-score, replicate 2: 0.0292
CG3739 [DRSC15510] | droplet/nuclear area B-score, replicate 1: 0.109; droplet/nuclear area B-score, replicate 2: -0.453
CG3906 [DRSC04431] | droplet/nuclear area B-score, replicate 1: -0.167; droplet/nuclear area B-score, replicate 2: 0.00731
CG7011 + Prp31 [DRSC10760] | droplet/nuclear area B-score, replicate 1: 0.163; droplet/nuclear area B-score, replicate 2: -0.833
MtnB [DRSC22744] | droplet/nuclear area B-score, replicate 1: 0.985; droplet/nuclear area B-score, replicate 2: 0.568
Max [DRSC11218] | droplet/nuclear area B-score, replicate 1: -1.61; droplet/nuclear area B-score, replicate 2: -0.0653
